The record followed here is publication doi:10.1101/2023.12.15.571360.

Chains of the proteins cited; added tags and fusions are not shown. Lines headed by an entry give the natural chain unless they say otherwise; changes in a name come on top.
UniProt P61586: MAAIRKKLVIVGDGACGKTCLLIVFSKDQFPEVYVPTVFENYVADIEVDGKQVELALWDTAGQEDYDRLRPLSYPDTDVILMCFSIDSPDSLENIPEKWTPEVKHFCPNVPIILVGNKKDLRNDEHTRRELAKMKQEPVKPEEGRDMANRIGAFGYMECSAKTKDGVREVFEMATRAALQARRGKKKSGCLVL

This assay concerns the target GST-RhoA-G17A (UniProt P61586). The experiment in a line: pull-down.

These are yes or no findings as the source states them, for the method shown. Binding seen in cells or lysates may run through a third protein. Some results given as binding are weak or reduced against the parent protein; the word gives no strength.

B1: ARHGEF2 (protein, UniProt Q60875 1-985)
chain: MSRIESLTRARIDRSKEQATKTREKEKMKEAKDARYTNGHLFTTISVSGMTMCYACNKSITAKEALICPTCNVTIHNRCKDTLANCTKVKQKQQKAALLRNNTALQSVSLRSKTTTRERPTSAIYPSDSFRQSLLGSRRGLSSLSLAKSVSTTNIAGHFNDESPLGLRQILSQSTDSLNMRNRTLSVESLIDEGVEVFYNELMSDFEMDEKDFEADSWSLAVDSSFLQQHKKEVMKKQDVIYELIQTELHHVRTLKIMTRLFRTGMLEELQMEPEVVQGLFPCVDELSDIHTRFLNQLLERRRQALCPGSTRNFVIHRLGDLLISQFSGSNAEQMRKTYSEFCSRHTKALKLYKELYARDKRFQQFIRKMTRSAVLKRHGVQECILLVTQRITKYPVLINRILQNSHGVEEEYQDLASALGLVKELLSNVDQDVHELEKEARLQEIYNRMDPRAQTPVPGKGPFGRDELLRRKLIHEGCLLWKTATGRFKDVLLLLMTDVLVFLQEKDQKYIFTSLDKPSVVSLQNLIVRDIANQAKGMFLISSGPPEMYEVHAASRDDRTTWIRVIQQSVRLCPSREDFPLIETEDKAYLRRIKTKLQQKNQALVELLQKNVELFAEMVHFQALKAGFVGMPPPALPRGLFRLESFESLRGERLLKDALREVEGLKDLLLGPCVDLPMTSREPALPLDSDSGSCPGVTANGEARTFNGSIELCRADSDSSQKDRNGNQLRSPQEEVLQPLINLYGLLHGLQAVVVQQERLMEALFPEGPERWEKLSRANSRDGEAGRAAVASVTPEKQATELALLQRQHTLLQEELRRCQRLGEERATEAGSLEARLRESEQARALLEREAEEIRRQLAALGQNEPLPAEAPWARRPLDPRRRSLPAGDALYLSFNPPQPSRGHDRLDLPVTVRSLHRPFDDREAQELGSPEDRLQDSSDPDTGSEEEVSSRLSPPHSPRDFTRMQDIPEETESRDGEPTASES
modifications: phosphorylation at T103 increased by co-expressed CaMKII-CA
On to B1, for which the binding entry is “binds”.
